Experimental data reported in publication PMC4432279.
No constants are given. Whether binding was seen depends on the method and setting. In cells and extracts the contact can be indirect. These calls come from enrichment with a bait or labelling near it, and not all partners need be listed.

Sequences of proteins named here, by UniProt entry; tags and fusion partners are left off.
UniProt O95071: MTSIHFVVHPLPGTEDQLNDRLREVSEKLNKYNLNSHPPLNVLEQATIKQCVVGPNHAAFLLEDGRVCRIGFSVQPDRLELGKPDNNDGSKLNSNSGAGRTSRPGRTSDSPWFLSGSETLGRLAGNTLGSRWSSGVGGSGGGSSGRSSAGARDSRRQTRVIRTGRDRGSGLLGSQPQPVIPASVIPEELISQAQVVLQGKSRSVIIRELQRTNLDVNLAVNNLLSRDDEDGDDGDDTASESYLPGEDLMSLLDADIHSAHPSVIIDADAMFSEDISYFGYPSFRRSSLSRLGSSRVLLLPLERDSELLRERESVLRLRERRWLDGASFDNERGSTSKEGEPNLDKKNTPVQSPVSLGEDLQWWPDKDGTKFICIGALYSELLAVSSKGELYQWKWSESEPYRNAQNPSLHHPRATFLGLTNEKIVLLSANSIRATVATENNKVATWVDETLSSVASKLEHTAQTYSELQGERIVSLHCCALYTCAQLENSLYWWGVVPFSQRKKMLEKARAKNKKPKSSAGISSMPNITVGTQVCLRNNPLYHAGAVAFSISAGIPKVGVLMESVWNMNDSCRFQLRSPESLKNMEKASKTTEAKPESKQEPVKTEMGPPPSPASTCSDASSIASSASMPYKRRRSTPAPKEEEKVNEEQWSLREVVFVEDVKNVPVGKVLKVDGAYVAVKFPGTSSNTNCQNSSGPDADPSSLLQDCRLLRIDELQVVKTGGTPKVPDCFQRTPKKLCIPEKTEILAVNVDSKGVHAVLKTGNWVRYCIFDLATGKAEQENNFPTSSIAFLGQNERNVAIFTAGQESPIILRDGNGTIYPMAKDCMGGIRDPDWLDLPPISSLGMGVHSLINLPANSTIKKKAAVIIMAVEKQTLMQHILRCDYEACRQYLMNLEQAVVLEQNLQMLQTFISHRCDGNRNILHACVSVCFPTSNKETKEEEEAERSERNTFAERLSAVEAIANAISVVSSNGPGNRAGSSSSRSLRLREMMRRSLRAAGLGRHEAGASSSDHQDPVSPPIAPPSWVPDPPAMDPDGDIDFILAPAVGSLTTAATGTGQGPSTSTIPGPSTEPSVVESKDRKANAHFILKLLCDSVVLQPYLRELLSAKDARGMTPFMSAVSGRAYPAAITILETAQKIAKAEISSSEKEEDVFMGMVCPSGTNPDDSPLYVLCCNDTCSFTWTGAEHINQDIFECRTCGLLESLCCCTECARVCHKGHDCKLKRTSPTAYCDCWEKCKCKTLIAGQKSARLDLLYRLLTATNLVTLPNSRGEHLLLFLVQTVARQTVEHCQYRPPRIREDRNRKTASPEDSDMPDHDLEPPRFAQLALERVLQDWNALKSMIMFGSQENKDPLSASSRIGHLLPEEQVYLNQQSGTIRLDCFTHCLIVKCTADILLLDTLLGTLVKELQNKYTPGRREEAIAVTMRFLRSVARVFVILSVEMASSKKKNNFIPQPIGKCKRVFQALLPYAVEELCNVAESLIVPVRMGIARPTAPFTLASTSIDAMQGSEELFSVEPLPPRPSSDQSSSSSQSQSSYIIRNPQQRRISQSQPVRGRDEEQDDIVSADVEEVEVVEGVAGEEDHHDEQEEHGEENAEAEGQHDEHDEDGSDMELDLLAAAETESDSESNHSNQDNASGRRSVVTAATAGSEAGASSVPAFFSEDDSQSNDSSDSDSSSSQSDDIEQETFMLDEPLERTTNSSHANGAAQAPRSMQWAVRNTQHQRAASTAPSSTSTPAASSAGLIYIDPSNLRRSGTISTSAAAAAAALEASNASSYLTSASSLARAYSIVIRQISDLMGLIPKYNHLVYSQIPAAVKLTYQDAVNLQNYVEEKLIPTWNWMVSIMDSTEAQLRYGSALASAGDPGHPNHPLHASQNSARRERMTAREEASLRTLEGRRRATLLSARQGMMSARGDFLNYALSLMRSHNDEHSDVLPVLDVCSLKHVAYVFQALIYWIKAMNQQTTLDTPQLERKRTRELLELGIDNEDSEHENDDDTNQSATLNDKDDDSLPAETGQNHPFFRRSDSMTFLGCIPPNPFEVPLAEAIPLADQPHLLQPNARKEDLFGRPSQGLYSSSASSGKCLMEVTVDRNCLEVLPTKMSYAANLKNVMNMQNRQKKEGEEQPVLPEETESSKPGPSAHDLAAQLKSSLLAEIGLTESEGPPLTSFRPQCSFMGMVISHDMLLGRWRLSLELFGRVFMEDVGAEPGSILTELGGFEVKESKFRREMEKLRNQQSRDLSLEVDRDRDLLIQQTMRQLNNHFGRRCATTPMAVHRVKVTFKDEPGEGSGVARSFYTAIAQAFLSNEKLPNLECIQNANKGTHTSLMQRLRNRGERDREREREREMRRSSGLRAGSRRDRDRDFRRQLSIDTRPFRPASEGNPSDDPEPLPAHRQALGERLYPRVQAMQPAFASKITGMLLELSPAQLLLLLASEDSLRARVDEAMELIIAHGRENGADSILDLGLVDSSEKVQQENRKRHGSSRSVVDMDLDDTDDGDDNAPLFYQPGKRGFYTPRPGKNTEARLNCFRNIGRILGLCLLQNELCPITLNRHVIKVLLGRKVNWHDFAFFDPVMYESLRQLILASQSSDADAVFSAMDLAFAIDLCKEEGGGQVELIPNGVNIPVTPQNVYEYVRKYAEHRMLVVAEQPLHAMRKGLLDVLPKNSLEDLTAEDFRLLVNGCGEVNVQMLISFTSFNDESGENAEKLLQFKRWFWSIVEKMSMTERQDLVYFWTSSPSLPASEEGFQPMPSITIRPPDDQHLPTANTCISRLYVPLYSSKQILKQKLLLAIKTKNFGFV

Biological target: HS-EDD (2×HA/2×Strep-tagged E3 identified by differential display) (human) (UniProt O95071)
Test: affinity purification with mass spectrometry; lysates of HS-EDD or HS tag HEK293 cells tandem affinity-purified by HA and Streptactin resins; SDS-PAGE, in-gel trypsin digest, LC-MS (LTQ-Orbitrap); proteins found in the HS-only sample removed; n = 3

- binding: binds
B1: MRS2 (protein, UniProt Q9HD23 50-443)
chain: RAAQLCGPDRLRVAGEVHRFRTSDVSQATLASVAPVFTVTKFDKQGNVTSFERKKTELYQELGLQARDLRFQHVMSITVRNNRIIMRMEYLKAVITPECLLILDYRNLNLEQWLFRELPSQLSGEGQLVTYPLPFEFRAIEALLQYWINTLQGKLSILQPLILETLDALVDPKHSSVDRSKLHILLQNGKSLSELETDIKIFKESILEILDEEELLEELCVSKWSDPQVFEKSSAGIDHAEEMELLLENYYRLADDLSNAARELRVLIDDSQSIIFINLDSHRNVMMRLNLQLTMGTFSLSLFGLMGVAFGMNLESSLEEDHRIFWLITGIMFMGSGLIWRRLLSFLGRQLEAPLPPMMASLPKKTLLADRSMELKNSLRLDGLGSGRSILTNR
